PubChem BioAssay AID1259405 | NCATS, 2018
Here is an unselected part of about 50,000 reagents tested. About 4,000 of all reagents (8%) count as active. 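Mouse siRNA library applied to hamster cells; one well for each siRNA.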 The numbers tell different reagents against one gene apart. Further read-outs or replicates are left out here.

Test: 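Mouse-designed siRNAs used to find CHO productivity engineering targets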 (primary screen)
Cell system: Chinese hamster CHO-K1 ovary cells with stable secreted eGFP expression
Reagent: single siRNA against mouse genes, 0.8 pmol siRNA per well (2 µl of 400 nM stock)
Timing: 3 days
Detection: 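Per-well intracellular GFP measured by laser scanning cytometry, plus viability from ATP luminescence, each relative to plate median of non-targeting control wells, in %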
Scale: GFP, % of control: higher = more GFP per well, higher productivity
Hit rule: 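Called active when intracellular GFP, relative to negative control, is at or above 120%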

GFP, % of control, by gene and reagent
Or52z14 (olfactory receptor family 52 subfamily Z member 14): #1 55.5 inactive; #2 69.2 inactive; #3 43.7 inactive
Borcs7 (BLOC-1 related complex subunit 7): #1 72.3 inactive; #2 65.4 inactive; #3 95.8 inactive
Slc4a2: #1 73.8 inactive; #2 65.3 inactive; #3 43.6 inactive
Impa2 (inositol monophosphatase 2): #1 68.9 inactive; #2 114 inactive; #3 125 active
Fam178b (family with sequence similarity 178, member B): #1 111 inactive; #2 109 inactive; #3 120 inactive
Pik3ap1 (phosphoinositide-3-kinase adaptor protein 1): #1 58.7 inactive; #2 95 inactive
Phf8l (PHD finger protein 8 like): #1 103 inactive; #2 67.6 inactive; #3 79 inactive
Zfp2 (zinc finger protein 2): #1 59.9 inactive; #2 88.7 inactive; #3 57.2 inactive
Ust (uronyl-2-sulfotransferase): #1 76.8 inactive; #2 84.2 inactive; #3 76.9 inactive
Kcnn2: #1 99.7 inactive; #2 66.8 inactive; #3 84.2 inactive
Dqx1 (DEAQ RNA-dependent ATPase): #1 107 inactive; #2 68.7 inactive; #3 57.5 inactive
A830039N20Rik (RIKEN cDNA A830039N20 gene): #1 73.1 inactive; #2 140 active; #3 80.1 inactive
4933421I07Rik (RIKEN cDNA 4933421I07 gene): #1 67.3 inactive; #2 73.3 inactive; #3 17 inactive
Pdcd1 (programmed cell death 1): #1 86.4 inactive; #2 63.1 inactive; #3 63.6 inactive
Aifm1 (apoptosis-inducing factor, mitochondrion-associated 1): #1 111 inactive; #2 83.7 inactive
Mcm10 (minichromosome maintenance 10 replication initiation factor): #1 84.2 inactive; #2 54.3 inactive; #3 51.3 inactive
Ap1m2 (adaptor protein complex AP-1, mu 2 subunit): #1 67.2 inactive; #2 97.9 inactive; #3 86.2 inactive
Isca1 (iron-sulfur cluster assembly 1): #1 52 inactive; #2 126 active; #3 92.3 inactive
Vmn1r200 (vomeronasal 1 receptor 200): #1 120 active; #2 141 active; #3 115 inactive
Hoxb9 (homeobox B9): #1 76.8 inactive; #2 108 inactive; #3 56.5 inactive
4933404G15Rik (RIKEN cDNA 4933404G15 gene): #1 48 inactive; #2 57.5 inactive; #3 146 active
Ogfod2: #1 69.6 inactive; #2 82.2 inactive; #3 123 active
Eps8 (EGFR pathway substrate 8): #1 54.1 inactive; #2 126 active
Slc2a1: #1 72.4 inactive; #2 79.9 inactive; #3 75.9 inactive
Ttc33 (tetratricopeptide repeat domain 33): #1 86.9 inactive; #2 71.5 inactive
Cmss1 (cms small ribosomal subunit 1): #1 34.4 inactive; #2 60.5 inactive; #3 79.7 inactive
Vmn1r234 (vomeronasal 1 receptor 234): #1 86.1 inactive; #2 86.7 inactive; #3 30.2 inactive
Ghrl (ghrelin): #1 65.7 inactive; #2 78.2 inactive; #3 81.4 inactive
F2rl3 (F2R like thrombin or trypsin receptor 3): #1 77.3 inactive; #2 82.3 inactive; #3 80.9 inactive
Ctxn1 (cortexin 1): #1 93.7 inactive; #2 103 inactive; #3 150 active

10 of these entries, set out differently:
| gene | reagent | GFP, % of control | Call |
| --- | --- | --- | --- |
| Ttc33 (tetratricopeptide repeat domain 33) | 1 | 86.9 | inactive |
| Ttc33 (tetratricopeptide repeat domain 33) | 2 | 71.5 | inactive |
| Cmss1 (cms small ribosomal subunit 1) | 1 | 34.4 | inactive |
| Cmss1 (cms small ribosomal subunit 1) | 2 | 60.5 | inactive |
| Cmss1 (cms small ribosomal subunit 1) | 3 | 79.7 | inactive |
| Vmn1r234 (vomeronasal 1 receptor 234) | 1 | 86.1 | inactive |
| Vmn1r234 (vomeronasal 1 receptor 234) | 2 | 86.7 | inactive |
| Vmn1r234 (vomeronasal 1 receptor 234) | 3 | 30.2 | inactive |
| Ghrl (ghrelin) | 1 | 65.7 | inactive |
| Ghrl (ghrelin) | 2 | 78.2 | inactive |
